Here are results for one molecule from patent publication US20120315270A1.

No constants are given. Whether binding was seen depends on the method and setting. Some binding calls cover weakened binding; strength is not graded here.

For experiment [1], the target named is 1lp1b-003. Kind of experiment: SPR (Example 3).
The target of experiment [2] is 1lp1b-003. Kind of experiment: SPR, Fab immobilized on CM5 chip. On the technique in general: Surface plasmon resonance follows binding to a sensor surface in real time, without labels.

B1: motavizumab Fab (Fab, V domains shown)
VH: QVTLRESGPALVKPTQTLTLTCTFSGFSLSTAGMSVGWIRQPPGKALEWLADIWWDDKKHYNPSLKDRLTISKDTSKNQVVLKVTNMDPADTATYYCARDMIFNFYFDVWGQGTTVTVSS
VL: DIQMTQSPSTLSASVGDRVTITCSASSRVGYMHWYQQKPGKAPKLLIYDTSKLASGVPSRFSGSGSGTEFTLTISSLQPDDFATYYCFQGSGYPFTFGGGTKVEIK
Take B1: the binding result in the experiment with 1lp1b-003 [1] and in the experiment with 1lp1b-003 [2] was “binds” throughout.
